Assay results from publication PMC9170682.
Results are given in words; binding and its absence hold for the method and conditions named. Binding seen in cells or lysates may run through a third protein. These calls come from enrichment with a bait or labelling near it, and not all partners need be listed. For some of these results: No binding means not detected with the bait. Tags and fused reporters may be left off the sequences shown. Values belong to the binder of their own block, whether it stands above or below them.

Columns and labels:
[1] = target: T1, SHH2-3xFLAG (A. thaliana) (UniProt Q8RWJ7); test: affinity purification with mass spectrometry; anti-FLAG M2 magnetic beads on extracts of 8 g inflorescences of TPF1-3xFLAG or SHH2-3xFLAG transgenic A. thaliana lines, Col-0 as control; IP buffer 50 mM Tris pH 7.6, 150 mM NaCl, 5 mM MgCl2, 10% glycerol, 0.1% NP40; 3 h at 4 °C; eluted with 3xFLAG peptide; LC-MS/MS, LFQ by MaxQuant; two independent experiments with two lines each
T1 sequence: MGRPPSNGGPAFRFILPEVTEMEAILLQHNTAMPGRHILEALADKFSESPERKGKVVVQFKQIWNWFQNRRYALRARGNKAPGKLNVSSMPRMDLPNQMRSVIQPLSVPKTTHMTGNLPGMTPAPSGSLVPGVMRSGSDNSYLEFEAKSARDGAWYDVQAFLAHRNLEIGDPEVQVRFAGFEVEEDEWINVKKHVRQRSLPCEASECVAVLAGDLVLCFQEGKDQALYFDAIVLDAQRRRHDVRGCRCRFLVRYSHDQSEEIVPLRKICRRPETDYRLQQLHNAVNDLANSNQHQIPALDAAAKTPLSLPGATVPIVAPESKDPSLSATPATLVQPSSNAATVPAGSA

[2] = target: T2, TPF1-3xFLAG (A. thaliana) (UniProt F4J5R1); test: as above
T2 sequence: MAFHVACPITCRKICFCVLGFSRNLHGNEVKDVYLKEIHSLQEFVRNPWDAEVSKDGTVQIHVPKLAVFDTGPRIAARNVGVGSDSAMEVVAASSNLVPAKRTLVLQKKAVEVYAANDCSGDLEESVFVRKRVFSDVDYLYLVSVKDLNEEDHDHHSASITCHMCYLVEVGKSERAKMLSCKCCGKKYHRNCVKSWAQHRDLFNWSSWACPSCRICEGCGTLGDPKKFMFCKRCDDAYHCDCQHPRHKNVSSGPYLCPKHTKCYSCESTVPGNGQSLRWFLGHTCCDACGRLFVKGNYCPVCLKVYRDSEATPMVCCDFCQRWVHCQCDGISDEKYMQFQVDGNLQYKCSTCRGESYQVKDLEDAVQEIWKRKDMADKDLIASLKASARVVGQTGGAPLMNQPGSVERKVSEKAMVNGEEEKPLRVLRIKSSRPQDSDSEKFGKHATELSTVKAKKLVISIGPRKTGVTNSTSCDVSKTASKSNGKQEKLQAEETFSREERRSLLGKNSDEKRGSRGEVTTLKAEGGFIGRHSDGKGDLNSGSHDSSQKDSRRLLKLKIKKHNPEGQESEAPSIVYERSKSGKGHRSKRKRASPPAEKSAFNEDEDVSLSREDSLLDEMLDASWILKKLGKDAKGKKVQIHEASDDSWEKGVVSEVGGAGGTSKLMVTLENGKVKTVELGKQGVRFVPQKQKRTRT

binding [1]: binds
binding [2]: no binding
B1: OPF2 (protein, UniProt Q5PNS0 1-482)
chain: MHYSQTSSFGGNHTEIAKIIHKFLQPRVKQYPLWNPPSREYMSRAMACQICEVTINEMDTLLICDACEKAYHLKCLQGNNMKGVPKSEWHCSRCVQAFNGKPFPPTYGRATRAVATTTAKMPFRAAGVLSSSAKKIGPMDIKANQQKPIVSTFSRLQNTGLVSGAATTSQFESASVNAKTTASAAKTTNIGSQGSKENVACGANSPAPVSLTETPNRTGIASTISVINNGLISKPLTPVGTMSSTSPLPVVNQLPVNATSNASPSTPITASLVAQAPTVTQNGDGSSTASGTADHSILNADITTQVHTLTVTSSSNSQQAVSHSEVAKATEDAAPLENVSECEKPSESTSHPDSLNDKTISENVQESSKDAKVDSEACQNHPTASPATVVPDQDSTITAAPSVTQEDSAFNTEKTPPQPLSVSSNYDSQTEKETPNVQDSVHNVPGDSEKGKGLNGLDDRHQEQPSEPEFYKSDSVKEENAA

binding [1]: binds
binding [2]: no binding
B2: CHR23 (protein, UniProt F4K128 1-1064)
chain: MVKQLQEQEENDPVEKTKSLISALNYLSRDLLLPSHLYASVSSIYHASVSDLSPSPPLRGNSYTPNRGDLMSEFEDALLQQRLNYESGSRLAELKETRYKNRIHNRLSQLEGLPSNRGEDLQEKCLLELYGLKLQELQCRVRGEVSAEYWLRLNCADPERQLYDWGMMRLPRRMYGVGDSFVMEADDQFRNKRDAERLLRLEEEEKNLIETTQRKFFAEVLNAVREFQLQIQASHRRCKQRNDGVQAWHGKQRQRATRAEKLRIMALKSDDQEEYMKLAKESKNEKLTLFLEETNKIFVSLGAAVQRQKDAKLSENTKLLKGSESDLSDVDAPEDVLPAQDIEIIDSDNNDDSNDLLEGERQFNLAIHSIQEKVTKQPSLLQGGELRSYQLEGLQWMVSLYNNDYNGILADEMGLGKTIQTIALIAYLLESKDLHGPHLILAPKAVLPNWENEFALWAPSISAFLYDGSKEKRTEIRARIAGGKFNVLITHYDLIMRDKAFLKKIDWNYMIVDEGHRLKNHECALAKTLGTGYRIKRRLLLTGTPIQNSLQELWSLLNFLLPHIFNSIHNFEEWFNTPFAECGSASLTDEEELLIINRLHHVIRPFLLRRKKSEVEKFLPGKTQVILKCDMSAWQKLYYKQVTDVGRVGLHSGNGKSKSLQNLTMQLRKCCNHPYLFVGADYNMCKKPEIVRASGKFELLDRLLPKLKKAGHRILLFSQMTRLIDLLEIYLSLNDYMYLRLDGSTKTDQRGILLKQFNEPDSPYFMFLLSTRAGGLGLNLQTADTIIIFDSDWNPQMDQQAEDRAHRIGQKKEVRVFVLVSIGSIEEVILERAKQKMGIDAKVIQAGLFNTTSTAQDRREMLEEIMSKGTSSLGEDVPSEREINRLAARTEEEFWMFEQMDEERRKKENYKTRLMEEKEVPEWAYTSETQEDKTNAKNHFGSLTGKRKRKEAVYSDSLSDLQWMKAMESEDEDASKVSQKRKRTDTKTRMSNGSKAEAVLSESDEEKEEEEEERKEESGKESEEENEKPLHSWKTNKKKRSRYPVMTSSPNSRGKGSSKGSKRN
